# Reference: PMC5996148
# Several values for one entry are separate records, joined by “and”; a condition that tells them apart may be missing. Equal values may be shown once. This is one part of the list.
# How the values were obtained:
# Experiment in all cases: protein microarray (ProtoArray v5.0), streptavidin-Alexa Fluor 647
# Conditions in all cases: 3'-biotin; 20 mM Tris (pH 7.5), 5 mM MgCl2, 100 mM KCl, 0.1% Tween-20, A/T-rich and random oligonucleotide blockers; temperature not stated; high values mean tight binding
# [1] = tested on: Endoplasmic reticulum resident protein ERp27 (human)
# [2] = tested on: Endothelial protein C receptor (human)
# [3] = tested on: Enhancer of yellow 2 transcription factor homolog (human)
# [4] = tested on: Epidermis-type lipoxygenase 3 (human)
# [5] = tested on: Epididymal sperm-binding protein 1 (human)
# Ermin (human) = tested on: Ermin (human)
# Erythropoietin (human) = tested on: Erythropoietin (human)
# [6] = tested on: Eukaryotic translation initiation factor 3 subunit E (human)
# [7] = tested on: Exocyst complex component 3 (human)
# F3 (human) = tested on: F3 (human)
sequence,measurement,setting,value
GGGAGGCTGAGGCAGG [G4-1 biotinylated (PQS2)],binding signal,[1],-0.276 z-score
same,binding signal,[2],-0.333 z-score
same,binding signal,[3],-0.341 z-score
same,binding signal,[4],-0.317 z-score
same,binding signal,[5],-0.241 z-score
same,binding signal,Ermin (human),-0.265 z-score and -0.302 z-score
same,binding signal,Erythropoietin (human),-0.354 z-score
same,binding signal,[6],-0.348 z-score
same,binding signal,[7],-0.363 z-score
same,binding signal,F3 (human),-0.312 z-score

# For convenience, part of the list above.
sequence,measurement,setting,value
GGGAGGCTGAGGCAGG [G4-1 biotinylated (PQS2)],binding signal,Ermin (human),-0.265 z-score and -0.302 z-score
same,binding signal,Erythropoietin (human),-0.354 z-score
